Measured values published in PMC10808114, “Yeast 26S proteasome nuclear import is coupled to nucleus-specific degradation of the karyopherin adaptor protein Sts1” (Scientific Reports, 2024).
No constants are given. Whether binding was seen depends on the method and setting. For some assays here: In cells and extracts the contact can be indirect. Some binding calls cover weakened binding; strength is not graded here. For some assays here: Where a sequence is shown, tags or fusion partners need not be part of it.

The chains behind the UniProt entries cited, without tags or fusion partners.
UniProt Q02821: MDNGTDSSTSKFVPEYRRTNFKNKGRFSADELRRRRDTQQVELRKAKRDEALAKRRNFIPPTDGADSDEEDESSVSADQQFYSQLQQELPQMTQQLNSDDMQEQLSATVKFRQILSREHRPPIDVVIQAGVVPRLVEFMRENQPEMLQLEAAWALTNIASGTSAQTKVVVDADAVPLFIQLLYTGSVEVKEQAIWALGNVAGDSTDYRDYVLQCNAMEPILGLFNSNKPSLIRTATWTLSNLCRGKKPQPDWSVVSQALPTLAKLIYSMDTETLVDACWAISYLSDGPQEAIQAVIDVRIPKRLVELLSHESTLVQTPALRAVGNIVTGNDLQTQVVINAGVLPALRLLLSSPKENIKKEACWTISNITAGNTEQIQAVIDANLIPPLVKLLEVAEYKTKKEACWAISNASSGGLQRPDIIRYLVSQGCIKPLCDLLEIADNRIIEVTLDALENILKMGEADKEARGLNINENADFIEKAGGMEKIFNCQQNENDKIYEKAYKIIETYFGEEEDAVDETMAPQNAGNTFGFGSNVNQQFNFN
UniProt Q06142: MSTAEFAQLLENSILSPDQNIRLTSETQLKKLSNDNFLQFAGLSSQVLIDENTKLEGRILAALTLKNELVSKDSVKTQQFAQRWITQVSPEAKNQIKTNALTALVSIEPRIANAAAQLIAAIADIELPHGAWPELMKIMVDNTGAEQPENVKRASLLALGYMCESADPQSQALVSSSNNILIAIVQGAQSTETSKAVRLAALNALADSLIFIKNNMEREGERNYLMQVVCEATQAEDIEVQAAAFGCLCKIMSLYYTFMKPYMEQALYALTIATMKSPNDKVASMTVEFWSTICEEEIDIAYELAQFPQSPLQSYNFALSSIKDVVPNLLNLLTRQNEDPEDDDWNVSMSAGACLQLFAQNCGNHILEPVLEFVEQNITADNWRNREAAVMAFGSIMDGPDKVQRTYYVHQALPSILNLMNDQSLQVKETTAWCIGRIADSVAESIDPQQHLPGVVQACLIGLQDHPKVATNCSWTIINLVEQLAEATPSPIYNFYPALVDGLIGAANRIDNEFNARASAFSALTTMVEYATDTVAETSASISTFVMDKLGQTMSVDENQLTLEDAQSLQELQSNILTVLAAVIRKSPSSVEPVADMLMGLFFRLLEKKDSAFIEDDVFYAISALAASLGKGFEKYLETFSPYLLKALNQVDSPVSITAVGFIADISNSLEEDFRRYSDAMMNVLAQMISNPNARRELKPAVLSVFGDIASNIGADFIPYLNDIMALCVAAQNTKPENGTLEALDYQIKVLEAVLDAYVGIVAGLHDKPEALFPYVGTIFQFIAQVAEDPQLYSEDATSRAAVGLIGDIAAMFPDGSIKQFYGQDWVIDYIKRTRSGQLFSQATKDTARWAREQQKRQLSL

Assays:
[1] = molecular target: T1, Sts1-6His (S. cerevisiae) (UniProt P38637); assay: co-purification; Sts1-6His and GST-Srp1 co-expressed in E. coli; clarified extract combined with E. coli extract containing untagged Kap95; full complex purified by 6His-tag binding to TALON resin
T1 sequence: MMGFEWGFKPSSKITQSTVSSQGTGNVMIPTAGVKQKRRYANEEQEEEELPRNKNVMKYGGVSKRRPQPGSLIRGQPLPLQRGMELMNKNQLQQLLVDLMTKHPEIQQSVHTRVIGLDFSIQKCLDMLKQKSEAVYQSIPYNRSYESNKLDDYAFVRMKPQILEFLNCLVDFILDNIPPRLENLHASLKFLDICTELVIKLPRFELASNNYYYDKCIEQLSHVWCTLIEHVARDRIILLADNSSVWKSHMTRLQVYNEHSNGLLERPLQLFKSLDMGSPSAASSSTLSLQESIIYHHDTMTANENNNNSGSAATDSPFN

[2] = molecular target: T2, full-length GST-Sts1 (S. cerevisiae) (UniProt P38637); assay: condition: only with four-fold molar excess of 6His-Gsp1 bound to GTP (RanGTP); pull-down; as a2, the pre-formed GST-Sts1/Srp1-6His/Kap95 complex on GSH beads then incubated with four-fold molar excess of 6His-Gsp1GTP (RanGTP), 4 °C, 2 h; what remained on the beads was examined; both purified
T2 sequence: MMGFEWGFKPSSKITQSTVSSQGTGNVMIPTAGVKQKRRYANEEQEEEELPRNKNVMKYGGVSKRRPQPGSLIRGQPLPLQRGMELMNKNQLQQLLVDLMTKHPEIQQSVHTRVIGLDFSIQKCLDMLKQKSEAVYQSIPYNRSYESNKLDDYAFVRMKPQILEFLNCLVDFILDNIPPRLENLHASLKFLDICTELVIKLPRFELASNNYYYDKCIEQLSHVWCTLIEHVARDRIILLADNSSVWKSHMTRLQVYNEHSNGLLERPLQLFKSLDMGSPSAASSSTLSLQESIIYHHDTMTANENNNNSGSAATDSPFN

GST-Srp1 (S. cerevisiae) [3] = molecular target: GST-Srp1 (S. cerevisiae) (UniProt Q02821); assay: co-purification; Sts1-6His and GST-Srp1 co-expressed in E. coli; clarified extract combined with E. coli extract containing untagged Kap95; full complex purified by 6His-tag binding to TALON resin
GST-Srp1 (S. cerevisiae) [4] = molecular target: GST-Srp1 (S. cerevisiae) (UniProt Q02821); assay: pull-down; complex of Sts1(1–116)-6His with GST-Srp1 as used for the proteasome pull-down (Fig. S1A, B); how it was formed is not told

GST-Srp1 (from UniProt Q02821 1-542)
binding [1]: binds

GST-cleaved Kap95 (from UniProt Q06142 1-861)
binding [2]: no binding

untagged Kap95 (in E. coli cell extract) (from UniProt Q06142 1-861)
binding (GST-Srp1 (S. cerevisiae) [3]): binds
binding [1]: binds

B1: Sts1(1–116)-6His (domain or fragment, UniProt P38637 1-116)
chain: MMGFEWGFKPSSKITQSTVSSQGTGNVMIPTAGVKQKRRYANEEQEEEELPRNKNVMKYGGVSKRRPQPGSLIRGQPLPLQRGMELMNKNQLQQLLVDLMTKHPEIQQSVHTRVIG
binding (GST-Srp1 (S. cerevisiae) [4]): binds
